Data on 61 molecules can be found in PubChem BioAssay AID493014 (National Center for Advancing Translational Sciences (NCATS), 2011).

The assay is described as follows: qHTS Assay to Find Inhibitors of Chronic Active B-Cell Receptor Signaling. As to conditions: ABC-DLBCL IkBa-CBG/CBR reporter, luminescence ratio (green luciferase fused to IkBa over red control in TMD8 lymphoma cells), 4 h. The procedure, abridged: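 Doxycycline induced both beetle luciferases in TMD8 lymphoma cells; IKK-driven degradation limits the IkappaBalpha-fused green signal, while red luminescence normalises for cell number and nonspecific effects. Compounds tested up to 46 uM, 4 hrs.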
In general terms: qHTS replaces the single test concentration by a dilution series.

Where [1] appears, read: measured here: CBR red luminescence, cell number.
Setting [2] is: measured here: IkBa-CBG green luminescence.

As usually defined, the AC50 is the concentration giving half of the maximal activity seen.

This is one part of the list. Shown are side measurements of this screen, not its main read-out; they come without a call. Compounds called inactive in the main read-out are mostly missing here. Words in brackets tell the shape of the fitted curve; partial curves, single points and poor fits give uncertain potencies.

As for `O=C(CCNc1cccc(F)c1)c1cccc([N+](=O)[O-])c1`, under setting [1], the AC50 is 35.5 µM [falling, single point].
As to `Cc1ccc2c(c1)/C(=N/N1C(=O)c3ccccc3C1=O)C(=O)N2`, under setting [1], the AC50 was 6.51 µM [rising, single point].
Regarding `CCCC1=C(C(=O)OCC)C(c2cccs2)n2ncnc2N1` (stereo unspecified), the AC50 under setting [2] is 7.94 µM [rising, partial curve, poor fit].
Turning to `CCC1CCCCN1C(=O)CSc1nnc(-c2ccc(Cl)cc2)o1` (stereo unspecified), under setting [1], the AC50 is 5.17 µM [rising, full curve, poor fit].
For `O=C(Nc1ccncc1)Nc1cc(Cl)ccc1Cl`, the AC50 under setting [1] is 1.26 µM [rising, full curve, poor fit].
Consider `CCc1nn(CCCN2CCN(c3cccc(Cl)c3)CC2)c(=O)n1CCOc1ccccc1`, for which, under setting [1], the AC50 is 35.5 µM [falling, single point].
As to `CC(Oc1ccccc1F)C(=O)Nc1ccc2ccccc2c1` (stereo unspecified), the AC50 under setting [1] is 4.61 µM [rising, partial curve, poor fit].
The same measure, in the same setting: then `Cc1csc(=Nc2ccc(S(=O)(=O)N3CCOCC3)cc2)n1Cc1ccco1`, with 5.01 µM [rising, partial curve]; and `COc1cccc(NC(=O)c2ccccc2-c2nc(-c3ccc(F)cc3)no2)c1`, with 20.6 µM [falling, partial curve, poor fit].
Take `Cc1ccc2nc(-c3ccc(SCC(=O)N4CCc5ccccc54)nc3)[nH]c2c1`: the AC50 under setting [2] is 5.8 µM [rising, partial curve, poor fit].
In the case of `COc1ccc(Cl)cc1S(=O)(=O)N1CCC(C(=O)NCCC2=CCCCC2)CC1`, under setting [1], the AC50 is 12.6 µM [falling, partial curve, poor fit].
The same measure, in the same setting: then `CCn1c(SCC(=O)c2ccc(C)cc2)nnc1-c1ccoc1C`, with 18.4 µM [falling, single point].
Turning to `CNc1nc(N/N=C/c2cc3c(cc2[N+](=O)[O-])OCO3)nc(Nc2ccccc2)n1`, the AC50 is 14.1 µM [falling, single point] under setting [1] and 25.1 µM [rising, partial curve, poor fit] under setting [2].
Take `COc1ccc(-c2nnc(SCC(=O)N3CCCCC3)o2)cc1`: the AC50 under setting [1] is 0.112 µM [rising, full curve, poor fit].
On the same count and under the same terms, as for `COc1ccc(-c2nn(-c3ccccc3)cc2C(=O)N2CCN(S(=O)(=O)c3ccccc3C#N)CC2)cc1`, the figure is 6.51 µM [rising, partial curve, poor fit].
Consider `COc1ccc(N(CC(=O)Nc2ccccc2C(F)(F)F)C2=NC3CS(=O)(=O)CC3S2)cc1` (stereo unspecified), for which the AC50 under setting [1] is 10 µM [falling, partial curve].
Same read-out and setting: as for `CCN1CCC(NC(=O)Nc2ccc(F)cc2F)CC1`, the figure is 3.98 µM [falling, partial curve, poor fit].
On to `CCCCn1c(CCc2ccccc2)nc2cc3[nH]c(=O)c(C(C)C)nc3cc21`, for which the concentration at half-maximal activity (AC50) under setting [1] was 15.8 µM [falling, partial curve, poor fit].
On the same count and under the same terms, then `COc1ccc(NC(=O)CN(C)C(=O)c2ccc(NS(=O)(=O)c3ccc(F)cc3)cc2)cc1`, with 29.1 µM [rising, single point].
The same measure, in the same setting: as for `Oc1ccc(O)c(Cc2nc3ccccc3s2)c1`, the figure is 12.6 µM [falling, partial curve].
The same measure, in the same setting: then `C=C1C(=O)O[C@@H]2[C@H]1CC[C@H](C)[C@]1(O)CCC(=O)[C@@]21C`, with 11.2 µM [falling, partial curve, poor fit].
With `Cc1cccc(C)c1NC(=O)C1CCCN(CCCc2ccccc2)C1` (stereo unspecified), the AC50 under setting [1] is 6.51 µM [falling, single point].
The same measure, in the same setting: then `O=C(NCCc1cn2ccccc2n1)c1cc(COc2ccc3ncccc3c2)on1`, with 35.5 µM [falling, single point]; and `Cc1cc(/C=C2\SC(=O)N(C)C2=O)c(C)n1-c1cccc(C(=O)O)c1`, with 35.5 µM [falling, single point]; and `CCOc1cccc(C(=O)Nc2ccc(N3CCCC3)cc2)c1`, with 11.2 µM [falling, partial curve].
On the same count and under the same terms, then `CCOC(=O)C1CCN(CC(=O)c2c(C)[nH]c3cc(C)ccc23)CC1`, with 35.5 µM [falling, single point]; and `O=C(Nc1ccc2nc(-c3ccc(Br)o3)[nH]c2c1)c1ccco1`, with 12.6 µM [falling, partial curve, poor fit]; and `COc1ccccc1[C@H]1C(c2ccccc2)=NN(c2ccccc2)[C@@H]1CO`, with 29.1 µM [falling, single point].
The same measure, in the same setting: as for `O=C(Cn1nnc2ccccc21)N/N=C\C=C\c1ccccc1`, the figure is 15.8 µM [rising, partial curve]; as for `CC(C)c1cccc(C2=CC(=O)C[C@H](c3ccc4c(c3)OCO4)C2)c1`, 13 µM [rising, partial curve, poor fit].
As for `Cc1c(C)n(CCc2ccccc2)c2ncnc(NCCCN(C)C)c12`, under setting [1], the AC50 was 35.5 µM [falling, partial curve, poor fit].
As to `COc1ccc(-c2[nH]ncc2/C=C(/C#N)C(=O)NC2CCCCC2)cc1`, the AC50 under setting [1] was 1.84 µM [rising, partial curve].
Take `O=C(NC(=S)Nc1cccc(F)c1)c1cccc([N+](=O)[O-])c1`: the AC50 is, setting by setting: under setting [1], 12.6 µM [falling, partial curve]; under setting [2], 17.8 µM [falling, partial curve, poor fit].
For the molecule `COc1cccc(C(=O)OCC(=O)N2CCc3ccccc3C2)c1`, under setting [1], the AC50 is 18.4 µM [falling, partial curve, poor fit].
Same read-out and setting: as for `O=C(Cc1c(Cl)cccc1Cl)OCc1ccccn1`, the figure is 15.8 µM [rising, single point].
On the same count and under the same terms, as for `CC(C)c1cccc(C(C)C)c1NC(=O)CNCc1ccccc1F`, the figure is 18.4 µM [falling, partial curve, poor fit]; as for `COc1cc(/C=C2\SC(=O)N(c3ccccc3Cl)C2=O)cc([N+](=O)[O-])c1O`, 35.5 µM [falling, single point].
On the same count and under the same terms, as for `O=C(CN1C(=O)NC2(CCCC2)C1=O)N1CCN(S(=O)(=O)c2ccccc2Br)CC1`, the figure is 35.5 µM [falling, partial curve, poor fit]; as for `Cc1nn(-c2ccccc2)cc1/C=N/NS(=O)(=O)c1ccccc1`, 6.51 µM [falling, single point]; as for `CCCC1=C(C(=O)OCC)C(c2ccccc2OCC)NC(=O)N1C` (stereo unspecified), 15.8 µM [falling, partial curve, poor fit].
`COc1cccc(-n2cc(CN(C)Cc3nc(Cc4cccc(F)c4)no3)cn2)c1`: the AC50 under setting [1] was 3.55 µM [rising, partial curve, poor fit].
The same measure, in the same setting: as for `COc1ccc(C)cc1NC(=O)COC(=O)c1c(C)nn(-c2ccccc2)c1C`, the figure is 29.1 µM [falling, single point]; as for `CCOC(=O)c1c(S(=O)(=O)Nc2ccc(CN3CCC(C)CC3)cc2)c(C)n(C)c1C`, 0.794 µM [rising, full curve, poor fit].
Take `COc1cccc(OC)c1NC(=O)CN1CCC(NC(=O)c2cccc(F)c2)CC1`: the AC50 under setting [1] is 11.6 µM [rising, partial curve, poor fit].
For `COCCN1CN(S(=O)(=O)c2ccc(Cl)cc2)c2nc3ccccc3nc21`, under setting [1], the AC50 was 35.5 µM [falling, single point].
Turning to `Cc1ccc(CCC(=O)Nc2ncc(Cc3cccc(Cl)c3Cl)s2)o1`, the AC50 under setting [1] is 0.731 µM [rising, full curve] and the AC50 under setting [2] was 0.517 µM [falling, full curve].
Turning to `N#C/C(=C/c1cn(CC(=O)O)c2ccccc12)C(=O)Nc1ccccc1`, under setting [1], the AC50 was 11.2 µM [falling, single point].
For `CC(=O)c1ccc2c3c(cccc13)CC2`, the AC50 under setting [1] was 29.1 µM [rising, single point].
`CN1CCC(=NNC(=O)c2cc(-c3ccc(Cl)cc3)n[nH]2)CC1`: the AC50 is, setting by setting: under setting [1], 11.2 µM [rising, partial curve, poor fit]; under setting [2], 12.6 µM [falling, single point].
`O=C1Nc2cc(Cl)c(Cl)cc2N(O)N1c1ccc(Cl)cc1`: the AC50 under setting [1] is 15.8 µM [falling, partial curve, poor fit].
On the same count and under the same terms, as for `O=C(O)CSc1nc2ccccc2c(=O)[nH]1`, the figure is 11.6 µM [falling, partial curve, poor fit].
On the same count and under the same terms, as for `CC(=O)NS(=O)(=O)c1ccc(NC(=O)/C=C/c2ccccc2)cc1`, the figure is 20 µM [falling, single point].
In the case of `Cc1cc(C(=O)CSc2cccc[n+]2[O-])c(C)n1-c1ccccc1`, the AC50 was 35.5 µM [falling, single point] under setting [1] and 28.2 µM [falling, single point] under setting [2].
For `CCOc1ncccc1C(=O)OCC(=O)c1ccc(C)c(C)c1`, the concentration at half-maximal activity (AC50) under setting [1] was 12.6 µM [falling, partial curve, poor fit].
As for `O=c1c2c(nc3nc(CCc4ccccc4)[nH]n13)CCC2`, the AC50 under setting [1] was 0.461 µM [falling, full curve].
On to `CCOC(=O)C1CCN(c2c([N+](=O)[O-])c(C(Cl)Cl)nn2-c2ccccc2)CC1`, for which, under setting [1], the half-maximal activity concentration (AC50) was 7.31 µM [rising, partial curve, poor fit].
Turning to `O=C1c2ccccc2NC(c2ccc(O)cc2)N1/N=C/c1ccc(O)cc1` (stereo unspecified), the AC50 under setting [1] is 20.6 µM [falling, partial curve].
The same measure, in the same setting: then `CC1(C)CC2(CCO1)OC(=O)CC2C(=O)Nc1ccc(Cl)cc1[N+](=O)[O-]` (stereo unspecified), with 0.316 µM [rising, full curve, poor fit]; and `N/C(=N\N=C\c1ccc(Br)o1)c1nonc1N`, with 17.8 µM [falling, single point].
As for `O=C(c1ccccc1)c1coc2ccc(O)c(CN3CCOCC3)c12`, the concentration at half-maximal activity (AC50) under setting [1] was 1.03 µM [falling, full curve, poor fit].
As for `Cc1cc(C)c(C#N)c(SCC(=O)Nc2ccc(S(=O)(=O)Nc3ncccn3)cc2)n1`, the AC50 under setting [1] is 14.1 µM [falling, single point].
